Laboratory results taken from patent publication US20250283871A1, “COMPOSITIONS AND METHODS FOR MODULATING THE INTERACTION BETWEEN SS18-SSX FUSION ONCOPROTEIN AND NUCLEOSOMES” (Dana-Farber Cancer Institute, Inc., priority 2020, published 2025).

System: BAF complex subunits and histone proteins
Test: Mass spectrometry proteomics of purified HA-SS18 WT and HA-SS18-SSX1 complexes (Tables 5A-5E)
Design: species or system human
Conditions: HEK-293T
[1] = HA-SS18SSX1_NE_peptides (Table 5B), HA-SS18-SSX1 BAF complex purification from soluble nuclear extract
[2] = HA-SS18WT_NE_peptides: proteins co-purified with HA-SS18 WT from nuclear extract (NE)
[3] = HA-SS18SSX1 purification, NE (soluble nuclear extract) fraction, peptides per identified protein
[4] = HA-SS18WT_NE_peptides: HA-SS18 WT complexes purified from nuclear extract (NE), label = protein identified (Gene Symbol)

B1: SYMPK (protein, UniProt Q92797 1-1274, looked up)
Symplekin: MASGSGDSVTRRSVASQFFTQEEGPGIDGMTTSERVVDLLNQAALITNDSKITVLKQVQELIINKDPTLLDNFLDEIIAFQADKSIEVRKFVIGFIEEACKRDIELLLKLIANLNMLLRDENVNVVKKAILTMTQLYKVALQWMVKSRVISELQEACWDMVSAMAGDIILLLDSDNDGIRTHAIKFVEGLIVTLSPRMADSEIPRRQEHDISLDRIPRDHPYIQYNVLWEEGKAALEQLLKFMVHPAISSINLTTALGSLANIARQRPMFMSEVIQAYETLHANLPPTLAKSQVSSVRKNLKLHLLSVLKHPASLEFQAQITTLLVDLGTPQAEIARNMPSSKDTRKRPRDDSDSTLKKMKLEPNLGEDDEDKDLEPGPSGTSKASAQISGQSDTDITAEFLQPLLTPDNVANLVLISMVYLPEAMPASFQAIYTPVESAGTEAQIKHLARLMATQMTAAGLGPGVEQTKQCKEEPKEEKVVKTESVLIKRRLSAQGQAISVVGSLSSMSPLEEEAPQAKRRPEPIIPVTQPRLAGAGGRKKIFRLSDVLKPLTDAQVEAMKLGAVKRILRAEKAVACSGAAQVRIKILASLVTQFNSGLKAEVLSFILEDVRARLDLAFAWLYQEYNAYLAAGASGSLDKYEDCLIRLLSGLQEKPDQKDGIFTKVVLEAPLITESALEVVRKYCEDESRTYLGMSTLRDLIFKRPSRQFQYLHVLLDLSSHEKDKVRSQALLFIKRMYEKEQLREYVEKFALNYLQLLVHPNPPSVLFGADKDTEVAAPWTEETVKQCLYLYLALLPQNHKLIHELAAVYTEAIADIKRTVLRVIEQPIRGMGMNSPELLLLVENCPKGAETLVTRCLHSLTDKVPPSPELVKRVRDLYHKRLPDVRFLIPVLNGLEKKEVIQALPKLIKLNPIVVKEVFNRLLGTQHGEGNSALSPLNPGELLIALHNIDSVKCDMKSIIKATNLCFAERNVYTSEVLAVVMQQLMEQSPLPMLLMRTVIQSLTMYPRLGGFVMNILSRLIMKQVWKYPKVWEGFIKCCQRTKPQSFQVILQLPPQQLGAVFDKCPELREPLLAHVRSFTPHQQAHIPNSIMTILEASGKQEPEAKEAPAGPLEEDDLEPLTLAPAPAPRPPQDLIGLRLAQEKALKRQLEEEQKLKPGGVGAPSSSSPSPSPSARPGPPPSEEAMDFREEGPECETPGIFISMDDDSGLTEAALLDSSLEGPLPKETAAGGLTLKEERSPQTLAPVGEDAMKTPSPAAEDAREPEAKGNS
Q: With B1 as the molecule, how does the “Total (peptides)” value [1] read?
A: The value was 1.

Q: What about the “Unique (peptides)” value [1] of the same molecule?
A: Its value is 1.

Q: And the “Total (peptides)” value [2]?
A: The value was 1.

Q: What about the “Unique (peptides)” value [2] of the same molecule?
A: The value was 1.

B2: SPATA5L1 (protein, UniProt Q9BVQ7 1-753, looked up)
ATPase family gene 2 protein …: MAPDSDPFPEGPLLKLLPLDARDRGTQRCRLGPAALHALGARLGSAVKISLPDGGSCLCTAWPRRDGADGFVQLDPLCASPGAAVGASRSRRSLSLNRLLLVPCPPLRRVAVWPVLRERAGAPGARNTAAVLEAAQELLRNRPISLGHVVVAPPGAPGLVAALHIVGGTPSPDPAGLVTPRTRVSLGGEPPSEAQPQPEVPLGGLSEAADSLRELLRLPLRYPRALTALGLAVPRGVLLAGPPGVGKTQLVRAVAREAGAELLAVSAPALQGSRPGETEENVRRVFQRARELASRGPSLLFLDEMDALCPQRGSRAPESRVVAQVLTLLDGASGDREVVVVGATNRPDALDPALRRPGRFDREVVIGTPTLKQRKEILQVITSKMPISSHVDLGLLAEMTVGYVGADLTALCREAAMHALLHSEKNQDNPVIDEIDFLEAFKNIQPSSFRSVIGLMDIKPVDWEEIGGLEDVKLKLKQSIEWPLKFPWEFVRMGLTQPKGVLLYGPPGCAKTTLVRALATSCHCSFVSVSGADLFSPFVGDSEKVLSQIFRQARASTPAILFLDEIDSILGARSASKTGCDVQERVLSVLLNELDGVGLKTIERRGSKSSQQEFQEVFNRSVMIIAATNRPDVLDTALLRPGRLDKIIYIPPPDHKGRLSILKVCTKTMPIGPDVSLENLAAETCFFSGADLRNLCTEAALLALQENGLDATTVKQEHFLKSLKTVKPSLSCKDLALYENLFKKEGFSNVEGI
Q: Which results are given for B2?
A: Total (peptides) [1]: 1; Unique (peptides) [1]: 1

B3: SLC30A9 (protein, UniProt Q6PML9 68-568, looked up)
Proton-coupled zinc …: STNVQKEGQGSQTLRVEKVPSFETAEGIGTELKAPLKQEPLQVRVKAVLKKREYGSKYTQNNFITGVRAINEFCLKSSDLEQLRKIRRRSPHEDTESFTVYLRSDVEAKSLEVWGSPEALAREKKLRKEAEIEYRERLFRNQKILREYRDFLGNTKPRSRTASVFFKGPGKVVMVAICINGLNCFFKFLAWIYTGSASMFSEAIHSLSDTCNQGLLALGISKSVQTPDPSHPYGFSNMRYISSLISGVGIFMMGAGLSWYHGVMGLLHPQPIESLLWAYCILAGSLVSEGATLLVAVNELRRNARAKGMSFYKYVMESRDPSTNVILLEDTAAVLGVIIAATCMGLTSITGNPLYDSLGSLGVGTLLGMVSAFLIYTNTEALLGRSIQPEQVQRLTELLENDPSVRAIHDVKATDLGLGKVRFKAEVDFDGRVVTRSYLEKQDFDQMLQEIQEVKTPEELETFMLKHGENIIDTLGAEVDRLEKELKKRNPEVRHVDLEIL
Q: For B3, which “Total (peptides)” value [1] is on record?
A: The value was 1.

Q: And the “Unique (peptides)” value [1]?
A: Its value is 1.

Q: And the “Total (peptides)” value [2]?
A: The value was 1.

Q: And the “Unique (peptides)” value [2]?
A: The value was 1.

B4: PIGX (protein, UniProt Q8TBF5 22-258, looked up)
GPI …: LTRGPAAAFTAARSDAGIRAMCSEIILRQEVLKDGFHRDLLIKVKFGESIEDLHTCRLLIKQDIPAGLYVDPYELASLRERNITEAVMVSENFDIEAPNYLSKESEVLIYARRDSQCIDCFQAFLPVHCRYHRPHSEDGEASIVVNNPDLLMFCDQEFPILKCWAHSEVAAPCALENEDICQWNKMKYKSVYKNVILQVPVGLTVHTSLVCSVTLLITILCSTLILVAVFKYGHFSL
Q: B4 was tested. Which “Total (peptides)” value [1] did it give?
A: The value was 1.

Q: And the “Unique (peptides)” value [1]?
A: Its value is 1.

B5: WDR33 (protein, UniProt Q9C0J8 2-1336, looked up)
pre-mRNA 3' end processing …: ATEIGSPPRFFHMPRFQHQAPRQLFYKRPDFAQQQAMQQLTFDGKRMRKAVNRKTIDYNPSVIKYLENRIWQRDQRDMRAIQPDAGYYNDLVPPIGMLNNPMNAVTTKFVRTSTNKVKCPVFVVRWTPEGRRLVTGASSGEFTLWNGLTFNFETILQAHDSPVRAMTWSHNDMWMLTADHGGYVKYWQSNMNNVKMFQAHKEAIREASFSPTDNKFATCSDDGTVRIWDFLRCHEERILRGHGADVKCVDWHPTKGLVVSGSKDSQQPIKFWDPKTGQSLATLHAHKNTVMEVKLNLNGNWLLTASRDHLCKLFDIRNLKEELQVFRGHKKEATAVAWHPVHEGLFASGGSDGSLLFWHVGVEKEVGGMEMAHEGMIWSLAWHPLGHILCSGSNDHTSKFWTRNRPGDKMRDRYNLNLLPGMSEDGVEYDDLEPNSLAVIPGMGIPEQLKLAMEQEQMGKDESNEIEMTIPGLDWGMEEVMQKDQKKVPQKKVPYAKPIPAQFQQAWMQNKVPIPAPNEVLNDRKEDIKLEEKKKTQAEIEQEMATLQYTNPQLLEQLKIERLAQKQVEQIQPPPSSGTPLLGPQPFPGQGPMSQIPQGFQQPHPSQQMPMNMAQMGPPGPQGQFRPPGPQGQMGPQGPPLHQGGGGPQGFMGPQGPQGPPQGLPRPQDMHGPQGMQRHPGPHGPLGPQGPPGPQGSSGPQGHMGPQGPPGPQGHIGPQGPPGPQGHLGPQGPPGTQGMQGPPGPRGMQGPPHPHGIQGGPGSQGIQGPVSQGPLMGLNPRGMQGPPGPRENQGPAPQGMIMGHPPQEMRGPHPPGGLLGHGPQEMRGPQEIRGMQGPPPQGSMLGPPQELRGPPGSQSQQGPPQGSLGPPPQGGMQGPPGPQGQQNPARGPHPSQGPIPFQQQKTPLLGDGPRAPFNQEGQSTGPPPLIPGLGQQGAQGRIPPLNPGQGPGPNKGDSRGPPNHHMGPMSERRHEQSGGPEHGPERGPFRGGQDCRGPPDRRGPHPDFPDDFSRPDDFHPDKRFGHRLREFEGRGGPLPQEEKWRRGGPGPPFPPDHREFSEGDGRGAARGPPGAWEGRRPGDERFPRDPEDPRFRGRREESFRRGAPPRHEGRAPPRGRDGFPGPEDFGPEENFDASEEAARGRDLRGRGRGTPRGGRKGLLPTPDEFPRFEGGRKPDSWDGNREPGPGHEHFRDTPRPDHPPHDGHSPASRERSSSLQGMDMASLPPRKRPWHDGPGTSEHREMEAPGGPSEDRGGKGRGGPGPAQRVPKSGRSSSLDGEHHDGYHRDEPFGGPPGSGTPSRGGRSGSNWGRGSNMNSGPPRRGASRGGGRGR
Q: Which “Total (total peptides)” value [3] does the source give for B5 here?
A: The value was 13.

Q: What about the “Unique (unique peptides)” value [3] of the same molecule?
A: Its value is 12.

Q: And the “Total (peptides)” value [4]?
A: The value was 10.

Q: And the “Unique (peptides)” value [4]?
A: The value was 9.

B6: TADA2B (protein, UniProt Q86TJ2 1-420, looked up)
Transcriptional adapter 2-beta: MAELGKKYCVYCLAEVSPLRFRCTECQDIELCPECFSAGAEIGHHRRYHGYQLVDGGRFTLWGPEAEGGWTSREEQLLLDAIEQFGFGNWEDMAAHVGASRTPQEVMEHYVSMYIHGNLGKACIPDTIPNRVTDHTCPSGGPLSPSLTTPLPPLDISVAEQQQLGYMPLRDDYEIEYDQDAETLISGLSVNYDDDDVEIELKRAHVDMYVRKLKERQRRKNIARDYNLVPAFLGKDKKEKEKALKRKITKEEKELRLKLRPLYQFMSCKEFDDLFENMHKEKMLRAKIRELQRYRRNGITKMEESAEYEAARHKREKRKENKNLAGSKRGKEDGKDSEFAAIENLPGFELLSDREKVLCSSLNLSPARYVTVKTIIIKDHLQKRQGIPSKSRLPSYLDKVLKKRILNFLTESGWISRDAS
Q: Which “Total (peptides)” value [1] does the source give for B6 here?
A: The value was 1.

Q: What about the “Unique (peptides)” value [1] of the same molecule?
A: The value was 1.

Q: And the “Total (peptides)” value [2]?
A: Its value is 2.

Q: And the “Unique (peptides)” value [2]?
A: Its value is 2.

B7: SFXN3 (protein, UniProt Q9BWM7 1-321, looked up)
Sideroflexin-3: MGELPLDINIQEPRWDQSTFLGRARHFFTVTDPRNLLLSGAQLEASRNIVQNYRAGVVTPGITEDQLWRAKYVYDSAFHPDTGEKVVLIGRMSAQVPMNMTITGCMLTFYRKTPTVVFWQWVNQSFNAIVNYSNRSGDTPITVRQLGTAYVSATTGAVATALGLKSLTKHLPPLVGRFVPFAAVAAANCINIPLMRQRELQVGIPVADEAGQRLGYSVTAAKQGIFQVVISRICMAIPAMAIPPLIMDTLEKKDFLKRRPWLGAPLQVGLVGFCLVFATPLCCALFPQKSSIHISNLEPELRAQIHEQNPSVEVVYYNKGL
Q: With B7 as the molecule, how does the “Total (peptides)” value [1] read?
A: Its value is 1.

Q: What about the “Unique (peptides)” value [1] of the same molecule?
A: Its value is 1.

Q: What about the “Total (peptides)” value [4] of the same molecule?
A: The value was 3.

Q: And the “Unique (peptides)” value [4]?
A: Its value is 3.

B8: CPSF7 (protein, UniProt Q8N684 1-471, looked up)
Cleavage and polyadenylation …: MSEGVDLIDIYADEEFNQDPEFNNTDQIDLYDDVLTATSQPSDDRSSSTEPPPPVRQEPSPKPNNKTPAILYTYSGLRNRRAAVYVGSFSWWTTDQQLIQVIRSIGVYDVVELKFAENRANGQSKGYAEVVVASENSVHKLLELLPGKVLNGEKVDVRPATRQNLSQFEAQARKRECVRVPRGGIPPRAHSRDSSDSADGRATPSENLVPSSARVDKPPSVLPYFNRPPSALPLMGLPPPPIPPPPPLSSSFGVPPPPPGIHYQHLMPPPPRLPPHLAVPPPGAIPPALHLNPAFFPPPNATVGPPPDTYMKASAPYNHHGSRDSGPPPSTVSEAEFEDIMKRNRAISSSAISKAVSGASAGDYSDAIETLLTAIAVIKQSRVANDERCRVLISSLKDCLHGIEAKSYSVGASGSSSRKRHRSRERSPSRSRESSRRHRDLLHNEDRHDDYFQERNREHERHRDRERDRHH
Q: What does the source list for B8?
A: Total (peptides) [1]: 1; Unique (peptides) [1]: 1; Total (peptides) [2]: 2; Unique (peptides) [2]: 2
